No constants are given. Whether binding was seen depends on the method and setting. In cells and extracts the contact can be indirect. Some entries that bind do so weakly or less than the wild type.
Molecular target: Mad (Drosophila (endogenous in larvae)) (UniProt P42003)
Test: co-IP; Drosophila larval lysates in CHAPS buffer (20 mM HEPES pH 7.5, 150 mM NaCl, 1 mM EDTA, 0.1% CHAPS); goat anti-Mad antibody, Protein G Dynabeads, 4 °C; blot with mouse anti-Pnr

Protein sequences, listed by entry. Tags and fused reporters are not part of them.
UniProt P42003: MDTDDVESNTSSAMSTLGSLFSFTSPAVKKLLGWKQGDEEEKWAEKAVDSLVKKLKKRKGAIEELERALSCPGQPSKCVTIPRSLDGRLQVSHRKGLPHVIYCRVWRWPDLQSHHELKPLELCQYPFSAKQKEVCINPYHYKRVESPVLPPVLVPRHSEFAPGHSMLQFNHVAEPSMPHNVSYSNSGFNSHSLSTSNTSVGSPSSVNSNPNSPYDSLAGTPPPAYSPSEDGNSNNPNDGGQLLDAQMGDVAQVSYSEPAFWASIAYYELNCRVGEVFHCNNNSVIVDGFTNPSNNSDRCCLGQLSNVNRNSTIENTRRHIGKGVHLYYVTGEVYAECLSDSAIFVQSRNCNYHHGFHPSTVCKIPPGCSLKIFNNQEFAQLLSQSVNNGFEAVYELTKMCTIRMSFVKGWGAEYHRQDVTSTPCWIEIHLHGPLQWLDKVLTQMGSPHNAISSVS
UniProt P52168: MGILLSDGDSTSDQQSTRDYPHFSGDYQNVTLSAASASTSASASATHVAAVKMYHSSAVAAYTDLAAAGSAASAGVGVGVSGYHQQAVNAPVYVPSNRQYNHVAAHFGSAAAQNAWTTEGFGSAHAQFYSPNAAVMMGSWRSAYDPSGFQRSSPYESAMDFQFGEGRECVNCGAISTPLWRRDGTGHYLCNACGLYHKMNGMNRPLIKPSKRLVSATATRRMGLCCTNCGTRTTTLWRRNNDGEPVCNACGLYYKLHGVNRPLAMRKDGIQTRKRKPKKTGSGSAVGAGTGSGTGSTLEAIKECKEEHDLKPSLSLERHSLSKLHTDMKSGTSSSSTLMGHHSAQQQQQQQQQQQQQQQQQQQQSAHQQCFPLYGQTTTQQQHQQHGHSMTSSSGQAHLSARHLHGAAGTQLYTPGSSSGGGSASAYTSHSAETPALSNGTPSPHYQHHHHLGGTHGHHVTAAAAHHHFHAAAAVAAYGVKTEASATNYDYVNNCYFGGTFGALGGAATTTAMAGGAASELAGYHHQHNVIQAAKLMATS

binding: binds
Substance: Pannier (from UniProt P52168 1-540)
